Results: the supplement of paper PMC10849652
The other results are listed elsewhere or left out.

Chains of the proteins cited; added tags and fusions are not shown. Lines headed by an entry give the natural chain unless they say otherwise; changes in a name come on top.
UniProt Q8N4Q1: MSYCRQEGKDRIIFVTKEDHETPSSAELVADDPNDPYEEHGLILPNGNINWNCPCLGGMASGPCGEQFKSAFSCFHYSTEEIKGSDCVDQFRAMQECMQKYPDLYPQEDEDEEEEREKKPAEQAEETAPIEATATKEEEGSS
UniProt P54105: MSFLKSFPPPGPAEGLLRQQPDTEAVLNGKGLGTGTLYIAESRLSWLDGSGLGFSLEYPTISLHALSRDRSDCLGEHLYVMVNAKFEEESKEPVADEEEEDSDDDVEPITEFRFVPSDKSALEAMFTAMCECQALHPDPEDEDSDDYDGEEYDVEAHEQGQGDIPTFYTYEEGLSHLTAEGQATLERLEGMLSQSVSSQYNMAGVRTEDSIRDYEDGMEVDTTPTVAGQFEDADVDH
UniProt Q9H078: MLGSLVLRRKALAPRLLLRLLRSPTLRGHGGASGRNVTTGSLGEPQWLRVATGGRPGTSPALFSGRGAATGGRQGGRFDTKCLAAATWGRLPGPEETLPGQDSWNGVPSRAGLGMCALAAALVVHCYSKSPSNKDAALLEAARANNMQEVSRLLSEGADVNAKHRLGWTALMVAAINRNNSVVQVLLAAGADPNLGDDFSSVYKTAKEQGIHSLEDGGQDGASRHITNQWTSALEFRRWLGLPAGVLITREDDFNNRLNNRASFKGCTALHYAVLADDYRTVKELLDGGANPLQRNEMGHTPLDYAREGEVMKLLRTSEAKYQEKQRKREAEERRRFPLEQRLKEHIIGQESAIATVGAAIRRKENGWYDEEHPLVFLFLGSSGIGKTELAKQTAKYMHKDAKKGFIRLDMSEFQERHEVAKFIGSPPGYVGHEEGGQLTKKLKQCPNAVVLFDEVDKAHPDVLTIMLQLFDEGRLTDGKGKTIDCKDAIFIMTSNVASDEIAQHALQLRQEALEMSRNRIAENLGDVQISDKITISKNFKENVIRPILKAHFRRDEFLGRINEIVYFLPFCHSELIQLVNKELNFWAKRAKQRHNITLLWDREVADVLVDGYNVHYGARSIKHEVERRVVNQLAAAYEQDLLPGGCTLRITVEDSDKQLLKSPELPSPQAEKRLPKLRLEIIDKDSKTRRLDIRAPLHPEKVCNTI
UniProt Q9NRP2: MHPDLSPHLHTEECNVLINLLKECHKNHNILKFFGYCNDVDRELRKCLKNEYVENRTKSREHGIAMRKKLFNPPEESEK
UniProt O14646: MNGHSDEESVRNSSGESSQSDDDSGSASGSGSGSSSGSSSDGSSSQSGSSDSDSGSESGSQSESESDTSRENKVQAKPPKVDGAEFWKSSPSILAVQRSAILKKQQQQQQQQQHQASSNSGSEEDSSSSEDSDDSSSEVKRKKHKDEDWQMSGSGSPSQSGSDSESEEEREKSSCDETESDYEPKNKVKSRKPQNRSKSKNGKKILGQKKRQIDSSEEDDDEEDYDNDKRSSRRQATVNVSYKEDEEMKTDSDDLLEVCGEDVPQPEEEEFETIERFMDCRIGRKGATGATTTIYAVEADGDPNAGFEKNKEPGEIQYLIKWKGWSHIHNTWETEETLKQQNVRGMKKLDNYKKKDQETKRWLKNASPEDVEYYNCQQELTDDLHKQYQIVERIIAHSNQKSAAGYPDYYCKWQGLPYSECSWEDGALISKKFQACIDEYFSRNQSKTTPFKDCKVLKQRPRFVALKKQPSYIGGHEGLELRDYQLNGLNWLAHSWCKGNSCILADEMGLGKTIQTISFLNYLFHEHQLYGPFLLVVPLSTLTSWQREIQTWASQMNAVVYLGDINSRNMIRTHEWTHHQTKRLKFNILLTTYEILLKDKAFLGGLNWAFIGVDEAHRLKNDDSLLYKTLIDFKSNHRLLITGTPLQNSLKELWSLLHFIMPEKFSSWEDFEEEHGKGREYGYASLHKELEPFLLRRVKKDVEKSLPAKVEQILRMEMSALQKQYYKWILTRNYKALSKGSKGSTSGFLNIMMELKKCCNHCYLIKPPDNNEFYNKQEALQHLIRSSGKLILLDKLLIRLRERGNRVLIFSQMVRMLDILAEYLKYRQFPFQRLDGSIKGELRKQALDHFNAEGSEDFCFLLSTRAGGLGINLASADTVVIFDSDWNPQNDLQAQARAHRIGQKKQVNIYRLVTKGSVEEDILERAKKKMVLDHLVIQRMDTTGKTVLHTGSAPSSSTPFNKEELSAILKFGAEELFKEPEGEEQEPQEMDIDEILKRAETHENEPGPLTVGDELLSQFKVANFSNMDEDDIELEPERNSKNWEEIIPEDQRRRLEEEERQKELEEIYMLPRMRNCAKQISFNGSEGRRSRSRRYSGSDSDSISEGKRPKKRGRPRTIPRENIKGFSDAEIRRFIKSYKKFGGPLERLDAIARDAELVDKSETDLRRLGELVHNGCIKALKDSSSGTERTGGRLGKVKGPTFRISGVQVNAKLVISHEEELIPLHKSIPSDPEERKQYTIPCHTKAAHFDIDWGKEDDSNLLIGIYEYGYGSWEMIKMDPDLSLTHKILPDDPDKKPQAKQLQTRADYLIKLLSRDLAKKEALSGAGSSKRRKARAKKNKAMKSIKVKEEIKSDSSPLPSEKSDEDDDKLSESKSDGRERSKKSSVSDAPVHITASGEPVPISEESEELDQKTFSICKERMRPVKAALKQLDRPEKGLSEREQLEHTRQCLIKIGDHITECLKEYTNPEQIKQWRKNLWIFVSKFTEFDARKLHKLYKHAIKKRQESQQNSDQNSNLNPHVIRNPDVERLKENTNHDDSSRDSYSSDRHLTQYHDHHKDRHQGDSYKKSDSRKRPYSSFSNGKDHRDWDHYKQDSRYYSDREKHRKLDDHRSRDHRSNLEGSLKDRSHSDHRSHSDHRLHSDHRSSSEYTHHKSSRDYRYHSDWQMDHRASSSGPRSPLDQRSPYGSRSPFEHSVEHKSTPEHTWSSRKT
UniProt Q9HAW4: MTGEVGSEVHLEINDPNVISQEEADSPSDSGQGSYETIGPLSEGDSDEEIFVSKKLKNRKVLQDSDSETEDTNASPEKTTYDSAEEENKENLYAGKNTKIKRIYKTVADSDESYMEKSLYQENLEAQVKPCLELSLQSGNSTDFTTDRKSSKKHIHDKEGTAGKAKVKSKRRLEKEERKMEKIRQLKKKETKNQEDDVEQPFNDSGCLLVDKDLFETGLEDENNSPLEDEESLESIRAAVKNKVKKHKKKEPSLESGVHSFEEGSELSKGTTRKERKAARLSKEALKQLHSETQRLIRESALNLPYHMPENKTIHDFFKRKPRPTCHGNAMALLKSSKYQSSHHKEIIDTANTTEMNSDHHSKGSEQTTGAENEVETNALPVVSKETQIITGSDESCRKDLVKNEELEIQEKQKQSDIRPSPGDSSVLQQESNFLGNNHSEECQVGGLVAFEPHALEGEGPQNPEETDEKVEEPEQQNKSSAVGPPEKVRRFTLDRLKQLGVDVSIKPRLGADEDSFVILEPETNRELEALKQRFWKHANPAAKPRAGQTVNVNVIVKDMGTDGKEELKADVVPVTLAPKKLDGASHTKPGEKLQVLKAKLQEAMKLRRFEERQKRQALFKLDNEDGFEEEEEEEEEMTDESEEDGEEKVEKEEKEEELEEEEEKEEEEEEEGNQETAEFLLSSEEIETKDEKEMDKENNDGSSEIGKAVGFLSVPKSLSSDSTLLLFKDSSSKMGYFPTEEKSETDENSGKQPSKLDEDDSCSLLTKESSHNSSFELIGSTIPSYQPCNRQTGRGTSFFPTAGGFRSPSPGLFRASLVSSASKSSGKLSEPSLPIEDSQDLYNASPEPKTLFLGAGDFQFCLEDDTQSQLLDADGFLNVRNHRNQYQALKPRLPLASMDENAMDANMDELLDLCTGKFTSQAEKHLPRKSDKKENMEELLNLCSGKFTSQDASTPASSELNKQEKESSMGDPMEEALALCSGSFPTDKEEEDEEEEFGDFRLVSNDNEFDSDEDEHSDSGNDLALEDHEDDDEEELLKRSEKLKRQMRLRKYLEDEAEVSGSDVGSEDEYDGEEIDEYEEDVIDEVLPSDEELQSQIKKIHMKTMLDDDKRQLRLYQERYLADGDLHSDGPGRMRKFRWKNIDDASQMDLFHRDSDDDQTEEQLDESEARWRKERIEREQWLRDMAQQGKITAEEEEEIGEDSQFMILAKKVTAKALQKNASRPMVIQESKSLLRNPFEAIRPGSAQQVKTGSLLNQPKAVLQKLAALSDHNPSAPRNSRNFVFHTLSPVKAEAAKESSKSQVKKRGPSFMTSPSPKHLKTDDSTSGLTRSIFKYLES
UniProt Q7Z7K0: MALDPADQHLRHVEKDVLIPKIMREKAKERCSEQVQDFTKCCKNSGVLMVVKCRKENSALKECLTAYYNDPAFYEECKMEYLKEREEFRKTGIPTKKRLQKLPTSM
UniProt O14967: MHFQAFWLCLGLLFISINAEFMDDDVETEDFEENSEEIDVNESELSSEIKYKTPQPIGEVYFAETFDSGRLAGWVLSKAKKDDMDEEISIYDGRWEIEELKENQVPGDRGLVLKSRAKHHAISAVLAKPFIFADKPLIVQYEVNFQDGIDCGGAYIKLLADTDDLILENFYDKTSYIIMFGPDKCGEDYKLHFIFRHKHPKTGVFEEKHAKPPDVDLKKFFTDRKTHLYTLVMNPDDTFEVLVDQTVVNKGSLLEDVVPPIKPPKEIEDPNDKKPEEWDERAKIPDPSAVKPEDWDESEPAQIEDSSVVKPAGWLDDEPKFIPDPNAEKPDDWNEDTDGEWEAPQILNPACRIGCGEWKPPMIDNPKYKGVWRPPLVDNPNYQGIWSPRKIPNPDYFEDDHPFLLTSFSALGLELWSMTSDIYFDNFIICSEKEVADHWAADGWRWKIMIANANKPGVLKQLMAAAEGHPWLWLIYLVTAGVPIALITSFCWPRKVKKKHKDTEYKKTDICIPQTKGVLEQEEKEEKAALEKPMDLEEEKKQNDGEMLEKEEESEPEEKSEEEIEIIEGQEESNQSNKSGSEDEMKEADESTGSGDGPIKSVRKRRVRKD
UniProt Q9BW66: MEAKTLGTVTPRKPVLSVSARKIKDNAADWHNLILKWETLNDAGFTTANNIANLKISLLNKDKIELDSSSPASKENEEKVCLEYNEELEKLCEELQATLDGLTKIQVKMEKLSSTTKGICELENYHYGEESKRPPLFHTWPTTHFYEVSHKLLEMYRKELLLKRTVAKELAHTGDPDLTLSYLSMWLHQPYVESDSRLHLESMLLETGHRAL
UniProt Q8IY22: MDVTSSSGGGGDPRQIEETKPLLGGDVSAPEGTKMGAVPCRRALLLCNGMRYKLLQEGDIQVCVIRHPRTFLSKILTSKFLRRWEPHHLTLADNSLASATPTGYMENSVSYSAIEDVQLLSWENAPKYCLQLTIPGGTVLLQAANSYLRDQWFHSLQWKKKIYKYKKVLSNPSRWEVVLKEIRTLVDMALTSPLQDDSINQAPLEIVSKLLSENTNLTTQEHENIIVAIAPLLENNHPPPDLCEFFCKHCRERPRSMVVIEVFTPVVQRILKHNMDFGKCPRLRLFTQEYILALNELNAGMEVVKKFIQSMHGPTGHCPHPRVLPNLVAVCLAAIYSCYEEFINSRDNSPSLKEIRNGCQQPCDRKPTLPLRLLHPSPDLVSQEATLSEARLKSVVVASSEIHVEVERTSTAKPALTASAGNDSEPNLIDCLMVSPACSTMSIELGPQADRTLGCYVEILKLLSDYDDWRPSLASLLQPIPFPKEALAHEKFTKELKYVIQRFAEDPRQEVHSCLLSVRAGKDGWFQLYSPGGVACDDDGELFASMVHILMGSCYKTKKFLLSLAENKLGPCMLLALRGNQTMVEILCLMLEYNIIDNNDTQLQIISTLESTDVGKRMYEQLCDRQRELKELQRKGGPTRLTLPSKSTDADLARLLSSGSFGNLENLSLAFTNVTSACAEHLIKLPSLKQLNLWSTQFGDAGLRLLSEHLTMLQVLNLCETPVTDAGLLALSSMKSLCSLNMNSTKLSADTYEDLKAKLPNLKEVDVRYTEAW
UniProt O75503: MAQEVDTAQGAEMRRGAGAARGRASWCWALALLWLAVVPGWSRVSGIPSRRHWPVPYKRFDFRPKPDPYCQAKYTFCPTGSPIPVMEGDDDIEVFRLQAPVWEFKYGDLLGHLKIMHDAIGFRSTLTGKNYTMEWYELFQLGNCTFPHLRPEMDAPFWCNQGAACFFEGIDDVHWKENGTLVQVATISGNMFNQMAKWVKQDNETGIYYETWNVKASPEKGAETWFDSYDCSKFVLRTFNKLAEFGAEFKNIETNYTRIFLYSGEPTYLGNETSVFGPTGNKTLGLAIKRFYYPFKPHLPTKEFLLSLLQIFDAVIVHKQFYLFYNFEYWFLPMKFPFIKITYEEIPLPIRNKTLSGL
UniProt Q9NWW5: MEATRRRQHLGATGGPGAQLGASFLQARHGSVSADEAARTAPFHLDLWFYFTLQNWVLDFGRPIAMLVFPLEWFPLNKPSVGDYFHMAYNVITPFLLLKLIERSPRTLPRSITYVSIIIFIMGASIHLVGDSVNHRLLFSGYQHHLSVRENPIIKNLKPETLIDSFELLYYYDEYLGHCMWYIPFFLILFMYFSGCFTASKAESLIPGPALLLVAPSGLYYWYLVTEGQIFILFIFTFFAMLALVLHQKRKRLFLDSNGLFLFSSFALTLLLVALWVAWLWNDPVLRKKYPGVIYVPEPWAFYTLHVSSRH

Legend:
Experiment in all cases: log2 fold change, soluble protein after heating vs DMSO (PISA); higher = thermal stabilisation; K562 lysate, 10 uM; active = over 0.2 and 3.5 SD of the protein, either way, in both replicates (recomputed)
[1] = compound: NCC(=O)Nc1ccc(-n2nc(C(F)(F)F)cc2-c2ccc3c(ccc4ccccc43)c2)cc1
How it was run: (§1)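 Thermal stability, expressed as log-two fold change relative to solvent controls, is given from duplicates. Crude K562 extract in PBS pH 7.4 with 1 mM MgCl2, at 1 mg/mL protein, was treated with 10 μM compound for 30 min and heated in aliquots for 3 min across 48°C-58°C. After pooling, adjustment to 0.5% NP-40 at 4°C and centrifugation at 21,000xg for 90 min, supernatant protein was measured by TMTpro 16plex LC-MS/MS with channel sums equalised.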

vorinostat = compound: O=C(CCCCCCC(=O)Nc1ccccc1)NO [vorinostat]
How it was run: as §1

silmitasertib = compound: O=C(O)c1ccc2c(c1)nc(Nc1cccc(Cl)c1)c1ccncc12 [silmitasertib]
How it was run: as §1

[2] = compound: O=C1NC(=O)C(c2cnc3ccccn23)=C1c1cn2c3c(cc(F)cc13)CN(C(=O)N1CCCCC1)CC2
How it was run: as §1

entospletinib = compound: c1cn2cc(-c3ccc4cn[nH]c4c3)nc(Nc3ccc(N4CCOCC4)cc3)c2n1 [entospletinib]
How it was run: as §1

Row | Target | log2 fold change [1] | log2 fold change (vorinostat) | log2 fold change (silmitasertib) | log2 fold change [2] | log2 fold change (entospletinib)
1 | CLASP2 isoform 3 (UniProt O75122) | inactive: 0.035 | active: -0.329 | inactive: -0.033 | inactive: -0.02 | inactive: 0.005
2 | CMTR1 (UniProt Q8N1G2) | inactive: -0.011 | inactive: -0.25 | inactive: 0.078 | inactive: 0.048 | inactive: 0.015
3 | CHCHD4 isoform 2 (UniProt Q8N4Q1) | inactive: 0.06 | inactive: 0.207 | inactive: -0.145 | inactive: -0.027 | inactive: 0.01
4 | CLIP1 isoform 1 (UniProt P30622) | inactive: -0.008 | inactive: 0.092 | inactive: -0.01 | inactive: -0.01 | inactive: -0.009
5 | CLCN3 isoform 2 (UniProt P51790) | inactive: -0.059 | active: -0.286 | inactive: 0.033 | inactive: -0.024 | inactive: 0.046
6 | CLNS1A (UniProt P54105) | inactive: -0.026 | inactive: -0.008 | inactive: 0.022 | inactive: 0 | inactive: -0.004
7 | CLPB isoform 2 (UniProt Q9H078) | inactive: 0.075 | active: -0.446 | inactive: 0.062 | inactive: -0.028 | inactive: 0.016
8 | CLIC1 (UniProt O00299) | inactive: -0.01 | inactive: -0.094 | inactive: -0.008 | inactive: -0.019 | inactive: 0.009
9 | CMC2 (UniProt Q9NRP2) | inactive: -0.051 | inactive: -0.013 | inactive: -0.048 | inactive: -0.068 | inactive: -0.045
10 | CLP1 (UniProt Q92989) | inactive: 0.011 | active: -0.307 | inactive: 0.029 | inactive: -0.027 | inactive: 0.008
11 | CHD1 (UniProt O14646) | inactive: -0.053 | inactive: -0.045 | inactive: 0 | inactive: -0.092 | inactive: -0.014
12 | CLSPN (UniProt Q9HAW4) | inactive: 0 | inactive: 0.045 | inactive: -0.043 | inactive: -0.013 | inactive: 0.016
13 | CIAO3 (UniProt Q9H6Q4) | inactive: 0.011 | inactive: -0.182 | inactive: 0.003 | inactive: 0.033 | inactive: -0.01
14 | CHCHD3 (UniProt Q9NX63) | inactive: 0.041 | inactive: 0.046 | inactive: 0.018 | inactive: 0.007 | inactive: -0.016
15 | CLTB isoform 2 (UniProt P09497) | inactive: -0.014 | inactive: 0.128 | inactive: -0.017 | inactive: -0.006 | inactive: 0.011
16 | CMC1 (UniProt Q7Z7K0) | inactive: 0.039 | inactive: 0.086 | inactive: 0.037 | inactive: 0.017 | inactive: -0.08
17 | CHD6 (UniProt Q8TD26) | inactive: 0.042 | – | – | inactive: 0.064 | inactive: -0.182
18 | CLGN (UniProt O14967) | inactive: 0.131 | inactive: 0.124 | inactive: -0.047 | inactive: -0.003 | inactive: -0.005
19 | CHMP2B (UniProt Q9UQN3) | inactive: -0.045 | inactive: 0.073 | inactive: 0.038 | inactive: -0.03 | inactive: 0.008
20 | CHD5 (UniProt Q8TDI0) | inactive: 0.059 | active: -0.261 | inactive: 0.007 | inactive: 0.042 | inactive: 0.025
21 | CINP isoform 3 (UniProt Q9BW66) | inactive: 0.084 | – | – | inactive: 0.043 | inactive: 0.009
22 | CMBL (UniProt Q96DG6) | inactive: -0.065 | inactive: 0.09 | inactive: 0.042 | inactive: 0.071 | inactive: 0.037
23 | CMIP (UniProt Q8IY22) | inactive: -0.101 | active: -0.541 | inactive: 0.018 | inactive: 0.021 | inactive: -0.052
24 | CLIP1, A0A3B3ITA2 | inactive: 0.136 | – | – | inactive: 0.068 | –
25 | CLN5 (UniProt O75503) | inactive: 0.056 | inactive: 0.062 | inactive: -0.027 | – | inactive: 0.226
26 | CLN6 (UniProt Q9NWW5) | inactive: -0.088 | inactive: 0.05 | inactive: 0.077 | inactive: 0.145 | inactive: -0.054

In another format: results already given.
Row	Target	log2 fold change [1]	log2 fold change (vorinostat)	log2 fold change (silmitasertib)	log2 fold change [2]	log2 fold change (entospletinib)
11	CHD1 (UniProt O14646)	inactive: -0.053	inactive: -0.045	inactive: 0	inactive: -0.092	inactive: -0.014
12	CLSPN (UniProt Q9HAW4)	inactive: 0	inactive: 0.045	inactive: -0.043	inactive: -0.013	inactive: 0.016
